Counter-ions that a name gives are not always drawn. Some of the results follow. The calls rarely recur for the same compound in another form.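 Kinases, fused to nanoluciferase, were expressed in K562 cells; luminescence was measured every 4 h from 2 to 18 h as percent of control (DMSO = 100%, positive control = 0%). A time point is decreased if signal falls significantly (2 sigma). Hits were called by the authors by a rule that is not shown; the count of time points alone does not decide it.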
Columns and labels:
Details in all cases: K562, 2-18 h
RIOK1 = RIOK1 (UniProt Q9BRS2); test: kinase-Nluc reporter destabilization hit call (1 = scored as downregulated) (binary); higher = compound decreases kinase abundance
RIPK1 = RIPK1 (UniProt Q13546); test: as above
RIPK2 = RIPK2 (UniProt O43353); test: as above
ROR2 = ROR2 (UniProt Q01974); test: as above
RPS6KA1 = RPS6KA1 (UniProt Q15418); test: as above
SPHK1 = SPHK1 (UniProt Q9NYA1); test: as above
SRC = SRC (UniProt P12931); test: as above
STK24 = STK24 (UniProt Q9Y6E0); test: as above
STK38 = STK38 (UniProt Q15208); test: as above
SYK = SYK (UniProt P43405); test: as above
TEC = TEC (UniProt P42680); test: as above
TYK2 = TYK2 (UniProt P29597); test: as above
ULK3 = ULK3 (UniProt Q6PHR2); test: as above
YES1 = YES1 (UniProt P07947); test: as above
ZAK = ZAK (UniProt Q9NYL2); test: as above
ZAP70 = ZAP70 (UniProt P43403); test: as above
CDK4 = CDK4 (UniProt P11802); test: number of time points (of 4; 2 h point missing) at which kinase-Nluc abundance scored as decreased, DMSO-normalised (count); higher = more persistent destabilization
CDK7 = CDK7 (UniProt P50613); test: as above
RET = RET (UniProt P07949); test: kinase-Nluc reporter destabilization hit call (1 = scored as downregulated) (binary); higher = compound decreases kinase abundance
[1] = target: RET_M918T (clone: RET_mut) (UniProt P07949); test: as above

The chains behind the UniProt entries cited, without tags or fusion partners. Where a name states a change or a piece, a line headed by the entry shows the natural chain unless it says otherwise.
UniProt Q9BRS2: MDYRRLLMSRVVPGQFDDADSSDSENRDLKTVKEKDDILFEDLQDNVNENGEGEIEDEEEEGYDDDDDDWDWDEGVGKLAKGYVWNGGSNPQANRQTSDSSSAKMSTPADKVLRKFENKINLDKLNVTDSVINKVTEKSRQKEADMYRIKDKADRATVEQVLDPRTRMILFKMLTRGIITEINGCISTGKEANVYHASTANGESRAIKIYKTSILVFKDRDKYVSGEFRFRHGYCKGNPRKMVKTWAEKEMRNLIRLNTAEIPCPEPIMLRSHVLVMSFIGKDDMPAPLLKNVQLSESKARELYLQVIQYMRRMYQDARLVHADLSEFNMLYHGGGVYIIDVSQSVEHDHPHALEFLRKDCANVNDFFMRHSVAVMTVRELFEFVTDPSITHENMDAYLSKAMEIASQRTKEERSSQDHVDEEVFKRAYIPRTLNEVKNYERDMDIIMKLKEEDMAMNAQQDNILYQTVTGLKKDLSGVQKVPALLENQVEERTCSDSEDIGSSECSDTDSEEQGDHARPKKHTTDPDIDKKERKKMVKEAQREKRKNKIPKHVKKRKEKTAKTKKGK
UniProt Q13546: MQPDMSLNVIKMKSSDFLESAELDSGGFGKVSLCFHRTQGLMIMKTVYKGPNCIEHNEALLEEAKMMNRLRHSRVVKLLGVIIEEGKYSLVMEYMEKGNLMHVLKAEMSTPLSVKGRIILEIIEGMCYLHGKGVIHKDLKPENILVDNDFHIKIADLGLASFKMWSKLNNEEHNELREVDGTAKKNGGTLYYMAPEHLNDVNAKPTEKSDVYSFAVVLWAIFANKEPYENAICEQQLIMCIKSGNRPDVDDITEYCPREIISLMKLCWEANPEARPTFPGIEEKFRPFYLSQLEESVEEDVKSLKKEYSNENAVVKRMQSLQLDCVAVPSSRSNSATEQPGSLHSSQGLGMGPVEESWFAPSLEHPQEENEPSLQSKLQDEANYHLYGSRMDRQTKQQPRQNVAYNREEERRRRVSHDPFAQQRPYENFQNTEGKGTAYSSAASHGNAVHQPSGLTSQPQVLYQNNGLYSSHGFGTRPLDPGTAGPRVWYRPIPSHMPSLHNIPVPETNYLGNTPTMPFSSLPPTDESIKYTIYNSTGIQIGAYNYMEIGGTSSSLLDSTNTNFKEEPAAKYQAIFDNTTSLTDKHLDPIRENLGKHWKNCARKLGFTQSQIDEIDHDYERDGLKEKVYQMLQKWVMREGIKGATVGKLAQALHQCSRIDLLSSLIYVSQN
UniProt Q01974, whole entry: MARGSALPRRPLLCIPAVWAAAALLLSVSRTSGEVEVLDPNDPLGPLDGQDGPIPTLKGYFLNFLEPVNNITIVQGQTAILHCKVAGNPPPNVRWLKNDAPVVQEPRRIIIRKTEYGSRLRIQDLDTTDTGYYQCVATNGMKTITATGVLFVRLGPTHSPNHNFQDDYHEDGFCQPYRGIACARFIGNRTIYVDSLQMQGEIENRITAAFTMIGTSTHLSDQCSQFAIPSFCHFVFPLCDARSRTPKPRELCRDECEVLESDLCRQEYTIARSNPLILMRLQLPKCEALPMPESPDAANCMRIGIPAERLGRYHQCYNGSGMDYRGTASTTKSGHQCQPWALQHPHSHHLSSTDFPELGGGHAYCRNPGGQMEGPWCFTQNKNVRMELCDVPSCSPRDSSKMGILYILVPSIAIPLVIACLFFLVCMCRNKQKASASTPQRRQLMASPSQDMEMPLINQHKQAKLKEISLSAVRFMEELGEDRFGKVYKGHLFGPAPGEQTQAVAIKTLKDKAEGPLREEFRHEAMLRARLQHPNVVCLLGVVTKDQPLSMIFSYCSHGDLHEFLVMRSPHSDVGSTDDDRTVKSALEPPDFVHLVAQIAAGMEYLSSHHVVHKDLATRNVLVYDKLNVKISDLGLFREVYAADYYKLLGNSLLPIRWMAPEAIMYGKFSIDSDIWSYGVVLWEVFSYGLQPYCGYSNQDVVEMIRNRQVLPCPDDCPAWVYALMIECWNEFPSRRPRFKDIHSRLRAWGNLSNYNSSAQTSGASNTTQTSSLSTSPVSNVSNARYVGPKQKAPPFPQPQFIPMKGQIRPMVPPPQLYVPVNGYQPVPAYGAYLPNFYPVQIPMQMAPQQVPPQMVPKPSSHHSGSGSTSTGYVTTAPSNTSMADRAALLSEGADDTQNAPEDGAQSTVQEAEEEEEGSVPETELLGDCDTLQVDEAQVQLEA
UniProt Q15418, whole entry: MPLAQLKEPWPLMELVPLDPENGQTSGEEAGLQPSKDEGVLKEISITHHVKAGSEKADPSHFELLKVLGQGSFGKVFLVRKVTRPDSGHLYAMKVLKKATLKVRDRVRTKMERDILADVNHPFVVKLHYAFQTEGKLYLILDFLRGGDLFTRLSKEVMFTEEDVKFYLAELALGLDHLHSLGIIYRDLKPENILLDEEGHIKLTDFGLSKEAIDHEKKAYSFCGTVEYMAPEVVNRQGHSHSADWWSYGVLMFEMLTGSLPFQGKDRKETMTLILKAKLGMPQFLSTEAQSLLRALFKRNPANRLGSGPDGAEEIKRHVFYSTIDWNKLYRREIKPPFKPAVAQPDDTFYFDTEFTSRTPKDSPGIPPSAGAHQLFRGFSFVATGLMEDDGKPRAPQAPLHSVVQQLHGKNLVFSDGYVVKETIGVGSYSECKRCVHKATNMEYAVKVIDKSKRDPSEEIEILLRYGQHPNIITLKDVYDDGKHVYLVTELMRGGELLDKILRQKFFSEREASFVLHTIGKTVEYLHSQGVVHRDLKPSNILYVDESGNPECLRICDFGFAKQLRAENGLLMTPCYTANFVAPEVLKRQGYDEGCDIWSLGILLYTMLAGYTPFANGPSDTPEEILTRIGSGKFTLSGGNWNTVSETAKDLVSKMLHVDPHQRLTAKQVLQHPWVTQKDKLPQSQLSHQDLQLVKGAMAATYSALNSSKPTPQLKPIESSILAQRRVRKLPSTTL
UniProt Q9Y6E0: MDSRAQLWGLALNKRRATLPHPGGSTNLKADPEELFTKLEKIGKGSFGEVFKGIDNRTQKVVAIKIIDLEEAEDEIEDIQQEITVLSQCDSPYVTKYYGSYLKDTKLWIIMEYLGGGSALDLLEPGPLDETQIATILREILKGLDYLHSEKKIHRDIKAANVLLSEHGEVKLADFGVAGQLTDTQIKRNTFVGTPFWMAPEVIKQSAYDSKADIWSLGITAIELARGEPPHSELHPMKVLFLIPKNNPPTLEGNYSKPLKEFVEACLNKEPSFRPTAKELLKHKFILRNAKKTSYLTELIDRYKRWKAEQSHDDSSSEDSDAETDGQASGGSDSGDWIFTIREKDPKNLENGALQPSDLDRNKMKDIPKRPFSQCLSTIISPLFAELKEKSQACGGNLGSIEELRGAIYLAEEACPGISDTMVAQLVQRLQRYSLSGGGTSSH
UniProt Q15208: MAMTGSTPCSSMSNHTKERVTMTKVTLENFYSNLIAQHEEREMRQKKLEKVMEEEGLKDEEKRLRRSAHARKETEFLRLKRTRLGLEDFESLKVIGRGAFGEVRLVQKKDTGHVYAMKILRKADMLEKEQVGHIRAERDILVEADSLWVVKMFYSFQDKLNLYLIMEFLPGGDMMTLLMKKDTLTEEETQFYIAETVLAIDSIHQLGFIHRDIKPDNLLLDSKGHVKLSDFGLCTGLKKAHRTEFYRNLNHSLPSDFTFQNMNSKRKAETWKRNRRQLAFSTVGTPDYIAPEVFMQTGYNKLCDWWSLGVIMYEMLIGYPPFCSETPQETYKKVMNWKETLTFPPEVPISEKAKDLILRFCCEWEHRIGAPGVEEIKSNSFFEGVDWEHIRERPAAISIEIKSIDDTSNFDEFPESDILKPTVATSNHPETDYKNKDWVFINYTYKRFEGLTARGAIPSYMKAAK
UniProt P07947, whole entry, looked up: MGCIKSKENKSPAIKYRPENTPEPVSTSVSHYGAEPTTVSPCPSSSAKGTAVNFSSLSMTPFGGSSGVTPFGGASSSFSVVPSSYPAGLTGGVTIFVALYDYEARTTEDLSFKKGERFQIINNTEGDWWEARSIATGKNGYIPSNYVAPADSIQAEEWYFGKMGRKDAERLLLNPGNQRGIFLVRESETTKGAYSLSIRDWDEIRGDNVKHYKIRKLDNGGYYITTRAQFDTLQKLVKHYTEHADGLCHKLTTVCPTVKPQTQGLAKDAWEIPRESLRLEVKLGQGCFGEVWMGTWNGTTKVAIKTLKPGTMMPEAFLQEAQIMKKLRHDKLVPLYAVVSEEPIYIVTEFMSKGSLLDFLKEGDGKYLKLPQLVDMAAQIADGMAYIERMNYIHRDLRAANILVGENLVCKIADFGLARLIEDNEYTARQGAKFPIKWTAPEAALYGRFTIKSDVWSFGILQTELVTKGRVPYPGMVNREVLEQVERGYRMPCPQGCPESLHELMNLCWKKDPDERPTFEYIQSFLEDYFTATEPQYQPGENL
UniProt P43403: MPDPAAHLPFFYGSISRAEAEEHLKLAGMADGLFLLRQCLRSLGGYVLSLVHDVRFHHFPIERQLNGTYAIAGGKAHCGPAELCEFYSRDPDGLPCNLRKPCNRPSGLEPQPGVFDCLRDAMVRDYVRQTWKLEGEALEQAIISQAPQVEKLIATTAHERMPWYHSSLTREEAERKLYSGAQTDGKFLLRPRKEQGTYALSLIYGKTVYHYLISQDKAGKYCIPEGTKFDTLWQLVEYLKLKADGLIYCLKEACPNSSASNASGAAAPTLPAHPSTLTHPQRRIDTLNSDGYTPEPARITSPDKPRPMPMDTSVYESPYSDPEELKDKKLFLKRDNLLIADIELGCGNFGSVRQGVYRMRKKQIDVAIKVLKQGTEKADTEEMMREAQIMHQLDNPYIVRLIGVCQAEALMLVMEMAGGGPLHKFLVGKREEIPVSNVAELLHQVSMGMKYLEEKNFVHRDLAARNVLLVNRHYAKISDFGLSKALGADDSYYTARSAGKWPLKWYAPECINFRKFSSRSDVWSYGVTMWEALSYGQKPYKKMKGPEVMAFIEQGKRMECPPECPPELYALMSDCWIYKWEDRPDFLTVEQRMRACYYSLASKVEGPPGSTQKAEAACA
UniProt P50613: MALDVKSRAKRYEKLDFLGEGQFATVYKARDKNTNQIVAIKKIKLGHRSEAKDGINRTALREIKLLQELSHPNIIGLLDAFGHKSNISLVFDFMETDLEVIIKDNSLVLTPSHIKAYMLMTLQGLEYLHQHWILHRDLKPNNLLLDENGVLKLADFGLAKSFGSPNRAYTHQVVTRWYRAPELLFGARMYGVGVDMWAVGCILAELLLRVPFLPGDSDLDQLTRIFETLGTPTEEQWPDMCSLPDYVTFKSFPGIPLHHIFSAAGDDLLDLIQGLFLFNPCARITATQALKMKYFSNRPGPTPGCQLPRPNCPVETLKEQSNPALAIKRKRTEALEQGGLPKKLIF
UniProt P07949, whole entry, looked up: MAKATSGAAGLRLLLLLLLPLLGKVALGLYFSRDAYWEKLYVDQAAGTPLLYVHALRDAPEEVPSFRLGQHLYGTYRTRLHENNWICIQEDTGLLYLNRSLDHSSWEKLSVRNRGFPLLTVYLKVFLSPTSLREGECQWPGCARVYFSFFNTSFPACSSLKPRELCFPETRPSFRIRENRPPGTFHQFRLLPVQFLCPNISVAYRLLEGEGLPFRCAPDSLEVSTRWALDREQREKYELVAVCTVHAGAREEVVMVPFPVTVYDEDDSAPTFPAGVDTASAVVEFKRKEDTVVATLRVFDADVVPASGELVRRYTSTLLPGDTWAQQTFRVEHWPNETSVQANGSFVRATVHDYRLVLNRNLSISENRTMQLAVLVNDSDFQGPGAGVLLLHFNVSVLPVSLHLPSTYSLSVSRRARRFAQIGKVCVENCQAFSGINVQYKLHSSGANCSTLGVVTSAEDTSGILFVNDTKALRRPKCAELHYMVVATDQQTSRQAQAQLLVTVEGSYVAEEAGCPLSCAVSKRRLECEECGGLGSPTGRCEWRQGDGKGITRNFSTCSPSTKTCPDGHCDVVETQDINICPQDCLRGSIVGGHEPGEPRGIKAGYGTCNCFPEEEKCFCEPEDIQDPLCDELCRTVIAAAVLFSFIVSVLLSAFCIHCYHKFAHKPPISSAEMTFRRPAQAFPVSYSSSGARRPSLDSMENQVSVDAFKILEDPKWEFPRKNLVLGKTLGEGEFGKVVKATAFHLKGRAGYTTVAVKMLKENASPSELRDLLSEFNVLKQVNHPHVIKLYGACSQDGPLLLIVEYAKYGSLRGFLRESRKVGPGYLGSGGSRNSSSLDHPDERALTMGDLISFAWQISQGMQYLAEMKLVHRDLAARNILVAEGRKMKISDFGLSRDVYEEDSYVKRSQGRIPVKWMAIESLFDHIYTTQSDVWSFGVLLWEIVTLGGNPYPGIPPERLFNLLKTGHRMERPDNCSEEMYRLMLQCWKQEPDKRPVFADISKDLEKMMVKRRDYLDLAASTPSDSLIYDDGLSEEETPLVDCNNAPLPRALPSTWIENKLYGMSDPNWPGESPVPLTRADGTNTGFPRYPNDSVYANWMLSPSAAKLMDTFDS

CN1CCN(c2ccc3nc(-c4c(N)c5c(F)cccc5[nH]c4=O)[nH]c3c2)CC1 [Dovitinib (lactate)]
inactive: kinase-Nluc reporter destabilization hit call (RIOK1; 2.5 µM) 0 | kinase-Nluc reporter destabilization hit call (RIPK1; 2.5 µM) 0 | kinase-Nluc reporter destabilization hit call (RIPK2; 2.5 µM) 0 | kinase-Nluc reporter destabilization hit call (ROR2; 2.5 µM) 0 | kinase-Nluc reporter destabilization hit call (RPS6KA1; 2.5 µM) 0 | kinase-Nluc reporter destabilization hit call (SPHK1; 2.5 µM) 0 | kinase-Nluc reporter destabilization hit call (SRC; 2.5 µM) 0 | kinase-Nluc reporter destabilization hit call (STK24; 2.5 µM) 0 | kinase-Nluc reporter destabilization hit call (STK38; 2.5 µM) 0 | kinase-Nluc reporter destabilization hit call (SYK; 2.5 µM) 0 | kinase-Nluc reporter destabilization hit call (TEC; 2.5 µM) 0 | kinase-Nluc reporter destabilization hit call (TYK2; 2.5 µM) 0 | kinase-Nluc reporter destabilization hit call (ULK3; 2.5 µM) 0 | kinase-Nluc reporter destabilization hit call (YES1; 2.5 µM) 0 | kinase-Nluc reporter destabilization hit call (ZAK; 2.5 µM) 0 | kinase-Nluc reporter destabilization hit call (ZAP70; 2.5 µM) 0
0: number of time points (CDK4; 2.5 µM) | number of time points (CDK7; 2.5 µM)

CC(C)n1nc(-c2cc3cc(O)ccc3[nH]2)c2c(N)ncnc21 [Torkinib]
0: number of time points (CDK4; 2.5 µM) | number of time points (CDK7; 2.5 µM)
inactive: kinase-Nluc reporter destabilization hit call (RET; 2.5 µM) 0 | kinase-Nluc reporter destabilization hit call ([1]; 2.5 µM) 0 | kinase-Nluc reporter destabilization hit call (RIOK1; 2.5 µM) 0 | kinase-Nluc reporter destabilization hit call (RIPK1; 2.5 µM) 0 | kinase-Nluc reporter destabilization hit call (RIPK2; 2.5 µM) 0 | kinase-Nluc reporter destabilization hit call (ROR2; 2.5 µM) 0 | kinase-Nluc reporter destabilization hit call (RPS6KA1; 2.5 µM) 0 | kinase-Nluc reporter destabilization hit call (SPHK1; 2.5 µM) 0 | kinase-Nluc reporter destabilization hit call (STK24; 2.5 µM) 0 | kinase-Nluc reporter destabilization hit call (STK38; 2.5 µM) 0 | kinase-Nluc reporter destabilization hit call (SYK; 2.5 µM) 0 | kinase-Nluc reporter destabilization hit call (TEC; 2.5 µM) 0 | kinase-Nluc reporter destabilization hit call (TYK2; 2.5 µM) 0 | kinase-Nluc reporter destabilization hit call (ULK3; 2.5 µM) 0 | kinase-Nluc reporter destabilization hit call (YES1; 2.5 µM) 0 | kinase-Nluc reporter destabilization hit call (ZAK; 2.5 µM) 0 | kinase-Nluc reporter destabilization hit call (ZAP70; 2.5 µM) 0

COc1cc2ncnc(Nc3ccc(F)c(Cl)c3)c2cc1OCCCN1CCOCC1 [Gefitinib]
0: number of time points (CDK4; 10 µM) | number of time points (CDK7; 10 µM)
inactive: kinase-Nluc reporter destabilization hit call ([1]; 10 µM) 0 | kinase-Nluc reporter destabilization hit call (RIOK1; 10 µM) 0 | kinase-Nluc reporter destabilization hit call (RIPK1; 10 µM) 0 | kinase-Nluc reporter destabilization hit call (ROR2; 10 µM) 0 | kinase-Nluc reporter destabilization hit call (RPS6KA1; 10 µM) 0 | kinase-Nluc reporter destabilization hit call (SPHK1; 10 µM) 0 | kinase-Nluc reporter destabilization hit call (STK24; 10 µM) 0 | kinase-Nluc reporter destabilization hit call (STK38; 10 µM) 0 | kinase-Nluc reporter destabilization hit call (SYK; 10 µM) 0 | kinase-Nluc reporter destabilization hit call (TEC; 10 µM) 0 | kinase-Nluc reporter destabilization hit call (ULK3; 10 µM) 0 | kinase-Nluc reporter destabilization hit call (YES1; 10 µM) 0 | kinase-Nluc reporter destabilization hit call (ZAK; 10 µM) 0 | kinase-Nluc reporter destabilization hit call (ZAP70; 10 µM) 0
active: kinase-Nluc reporter destabilization hit call (TYK2; 10 µM) 1

CNC(=O)c1cc(Oc2ccc(NC(=O)Nc3ccc(Cl)c(C(F)(F)F)c3)cc2)ccn1 [Sorafenib]
0: number of time points (CDK4; 2.5 µM)
inactive: kinase-Nluc reporter destabilization hit call (RET; 2.5 µM) 0 | kinase-Nluc reporter destabilization hit call ([1]; 2.5 µM) 0 | kinase-Nluc reporter destabilization hit call (RIOK1; 2.5 µM) 0 | kinase-Nluc reporter destabilization hit call (RIPK1; 2.5 µM) 0 | kinase-Nluc reporter destabilization hit call (RIPK2; 2.5 µM) 0 | kinase-Nluc reporter destabilization hit call (ROR2; 2.5 µM) 0 | kinase-Nluc reporter destabilization hit call (RPS6KA1; 2.5 µM) 0 | kinase-Nluc reporter destabilization hit call (SPHK1; 2.5 µM) 0 | kinase-Nluc reporter destabilization hit call (STK24; 2.5 µM) 0 | kinase-Nluc reporter destabilization hit call (STK38; 2.5 µM) 0 | kinase-Nluc reporter destabilization hit call (SYK; 2.5 µM) 0 | kinase-Nluc reporter destabilization hit call (TEC; 2.5 µM) 0 | kinase-Nluc reporter destabilization hit call (TYK2; 2.5 µM) 0 | kinase-Nluc reporter destabilization hit call (ULK3; 2.5 µM) 0 | kinase-Nluc reporter destabilization hit call (YES1; 2.5 µM) 0 | kinase-Nluc reporter destabilization hit call (ZAK; 2.5 µM) 0 | kinase-Nluc reporter destabilization hit call (ZAP70; 2.5 µM) 0
3: number of time points (CDK7; 2.5 µM)

COc1nccc(-c2c(-c3ccc(F)cc3)ncn2C2CCNCC2)n1
inactive: kinase-Nluc reporter destabilization hit call (RET; 10 µM) 0 | kinase-Nluc reporter destabilization hit call ([1]; 10 µM) 0 | kinase-Nluc reporter destabilization hit call (RIOK1; 10 µM) 0 | kinase-Nluc reporter destabilization hit call (RIPK1; 10 µM) 0 | kinase-Nluc reporter destabilization hit call (RIPK2; 10 µM) 0 | kinase-Nluc reporter destabilization hit call (ROR2; 10 µM) 0 | kinase-Nluc reporter destabilization hit call (RPS6KA1; 10 µM) 0 | kinase-Nluc reporter destabilization hit call (SPHK1; 10 µM) 0 | kinase-Nluc reporter destabilization hit call (SRC; 10 µM) 0 | kinase-Nluc reporter destabilization hit call (STK24; 10 µM) 0 | kinase-Nluc reporter destabilization hit call (STK38; 10 µM) 0 | kinase-Nluc reporter destabilization hit call (SYK; 10 µM) 0 | kinase-Nluc reporter destabilization hit call (TEC; 10 µM) 0 | kinase-Nluc reporter destabilization hit call (TYK2; 10 µM) 0 | kinase-Nluc reporter destabilization hit call (ULK3; 10 µM) 0 | kinase-Nluc reporter destabilization hit call (YES1; 10 µM) 0 | kinase-Nluc reporter destabilization hit call (ZAP70; 10 µM) 0
0: number of time points (CDK4; 10 µM) | number of time points (CDK7; 10 µM)

Cc1ccc(O)cc1Nc1ccnc(Nc2cccc(C(N)=O)c2)n1 [Lck inhibitor 2]
inactive: kinase-Nluc reporter destabilization hit call (RET; 10 µM) 0 | kinase-Nluc reporter destabilization hit call ([1]; 10 µM) 0 | kinase-Nluc reporter destabilization hit call (RIOK1; 10 µM) 0 | kinase-Nluc reporter destabilization hit call (RIPK1; 10 µM) 0 | kinase-Nluc reporter destabilization hit call (RIPK2; 10 µM) 0 | kinase-Nluc reporter destabilization hit call (ROR2; 10 µM) 0 | kinase-Nluc reporter destabilization hit call (RPS6KA1; 10 µM) 0 | kinase-Nluc reporter destabilization hit call (SPHK1; 10 µM) 0 | kinase-Nluc reporter destabilization hit call (SRC; 10 µM) 0 | kinase-Nluc reporter destabilization hit call (STK24; 10 µM) 0 | kinase-Nluc reporter destabilization hit call (STK38; 10 µM) 0 | kinase-Nluc reporter destabilization hit call (TEC; 10 µM) 0 | kinase-Nluc reporter destabilization hit call (TYK2; 10 µM) 0 | kinase-Nluc reporter destabilization hit call (ULK3; 10 µM) 0 | kinase-Nluc reporter destabilization hit call (YES1; 10 µM) 0 | kinase-Nluc reporter destabilization hit call (ZAK; 10 µM) 0 | kinase-Nluc reporter destabilization hit call (ZAP70; 10 µM) 0
0: number of time points (CDK4; 10 µM) | number of time points (CDK7; 10 µM)

CC(C)(C)n1nc(-c2ccc(Cl)cc2)c2c(N)ncnc21
inactive: kinase-Nluc reporter destabilization hit call (RET; 10 µM) 0 | kinase-Nluc reporter destabilization hit call ([1]; 10 µM) 0 | kinase-Nluc reporter destabilization hit call (RIOK1; 10 µM) 0 | kinase-Nluc reporter destabilization hit call (RIPK1; 10 µM) 0 | kinase-Nluc reporter destabilization hit call (RIPK2; 10 µM) 0 | kinase-Nluc reporter destabilization hit call (ROR2; 10 µM) 0 | kinase-Nluc reporter destabilization hit call (RPS6KA1; 10 µM) 0 | kinase-Nluc reporter destabilization hit call (SPHK1; 10 µM) 0 | kinase-Nluc reporter destabilization hit call (SRC; 10 µM) 0 | kinase-Nluc reporter destabilization hit call (STK24; 10 µM) 0 | kinase-Nluc reporter destabilization hit call (STK38; 10 µM) 0 | kinase-Nluc reporter destabilization hit call (SYK; 10 µM) 0 | kinase-Nluc reporter destabilization hit call (TEC; 10 µM) 0 | kinase-Nluc reporter destabilization hit call (TYK2; 10 µM) 0 | kinase-Nluc reporter destabilization hit call (ULK3; 10 µM) 0 | kinase-Nluc reporter destabilization hit call (YES1; 10 µM) 0 | kinase-Nluc reporter destabilization hit call (ZAK; 10 µM) 0 | kinase-Nluc reporter destabilization hit call (ZAP70; 10 µM) 0
0: number of time points (CDK4; 10 µM) | number of time points (CDK7; 10 µM)

COc1ccc(-c2cc3nccn3c(Nc3ncccc3C(N)=O)n2)cc1OC [BAY 61-3606 (dihydrochloride)]
inactive: kinase-Nluc reporter destabilization hit call (RIOK1; 2.5 µM) 0 | kinase-Nluc reporter destabilization hit call (RIPK1; 2.5 µM) 0 | kinase-Nluc reporter destabilization hit call (RIPK2; 2.5 µM) 0 | kinase-Nluc reporter destabilization hit call (ROR2; 2.5 µM) 0 | kinase-Nluc reporter destabilization hit call (RPS6KA1; 2.5 µM) 0 | kinase-Nluc reporter destabilization hit call (SPHK1; 2.5 µM) 0 | kinase-Nluc reporter destabilization hit call (SRC; 2.5 µM) 0 | kinase-Nluc reporter destabilization hit call (STK24; 2.5 µM) 0 | kinase-Nluc reporter destabilization hit call (STK38; 2.5 µM) 0 | kinase-Nluc reporter destabilization hit call (SYK; 2.5 µM) 0 | kinase-Nluc reporter destabilization hit call (TEC; 2.5 µM) 0 | kinase-Nluc reporter destabilization hit call (TYK2; 2.5 µM) 0 | kinase-Nluc reporter destabilization hit call (ULK3; 2.5 µM) 0 | kinase-Nluc reporter destabilization hit call (YES1; 2.5 µM) 0 | kinase-Nluc reporter destabilization hit call (ZAP70; 2.5 µM) 0
0: number of time points (CDK4; 2.5 µM) | number of time points (CDK7; 2.5 µM)

Nc1ncnc2c1c(-c1cnc3[nH]ccc3c1)nn2C1CCCC1
inactive: kinase-Nluc reporter destabilization hit call (RET; 2.5 µM) 0 | kinase-Nluc reporter destabilization hit call ([1]; 2.5 µM) 0 | kinase-Nluc reporter destabilization hit call (RIOK1; 2.5 µM) 0 | kinase-Nluc reporter destabilization hit call (RIPK1; 2.5 µM) 0 | kinase-Nluc reporter destabilization hit call (RIPK2; 2.5 µM) 0 | kinase-Nluc reporter destabilization hit call (ROR2; 2.5 µM) 0 | kinase-Nluc reporter destabilization hit call (RPS6KA1; 2.5 µM) 0 | kinase-Nluc reporter destabilization hit call (SPHK1; 2.5 µM) 0 | kinase-Nluc reporter destabilization hit call (STK24; 2.5 µM) 0 | kinase-Nluc reporter destabilization hit call (STK38; 2.5 µM) 0 | kinase-Nluc reporter destabilization hit call (SYK; 2.5 µM) 0 | kinase-Nluc reporter destabilization hit call (TEC; 2.5 µM) 0 | kinase-Nluc reporter destabilization hit call (TYK2; 2.5 µM) 0 | kinase-Nluc reporter destabilization hit call (ULK3; 2.5 µM) 0 | kinase-Nluc reporter destabilization hit call (YES1; 2.5 µM) 0 | kinase-Nluc reporter destabilization hit call (ZAK; 2.5 µM) 0 | kinase-Nluc reporter destabilization hit call (ZAP70; 2.5 µM) 0
0: number of time points (CDK4; 2.5 µM) | number of time points (CDK7; 2.5 µM)

NC(=O)c1c(OCc2c(F)cc(Br)cc2F)nsc1NC(=O)NCCCCN1CCCC1
0: number of time points (CDK4; 2.5 µM) | number of time points (CDK7; 2.5 µM)
inactive: kinase-Nluc reporter destabilization hit call (RIOK1; 2.5 µM) 0 | kinase-Nluc reporter destabilization hit call (RIPK1; 2.5 µM) 0 | kinase-Nluc reporter destabilization hit call (RIPK2; 2.5 µM) 0 | kinase-Nluc reporter destabilization hit call (ROR2; 2.5 µM) 0 | kinase-Nluc reporter destabilization hit call (RPS6KA1; 2.5 µM) 0 | kinase-Nluc reporter destabilization hit call (SPHK1; 2.5 µM) 0 | kinase-Nluc reporter destabilization hit call (SRC; 2.5 µM) 0 | kinase-Nluc reporter destabilization hit call (STK24; 2.5 µM) 0 | kinase-Nluc reporter destabilization hit call (STK38; 2.5 µM) 0 | kinase-Nluc reporter destabilization hit call (TEC; 2.5 µM) 0 | kinase-Nluc reporter destabilization hit call (TYK2; 2.5 µM) 0 | kinase-Nluc reporter destabilization hit call (ULK3; 2.5 µM) 0 | kinase-Nluc reporter destabilization hit call (YES1; 2.5 µM) 0 | kinase-Nluc reporter destabilization hit call (ZAK; 2.5 µM) 0 | kinase-Nluc reporter destabilization hit call (ZAP70; 2.5 µM) 0

Reference: the supplement of paper PMC12823440, “Inhibitors supercharge kinase turnover through native proteolytic circuits” (Nature, 2025)
